The target of assay [1] is GFP-T6BP (TAX1BP1 / TRAF6-Binding Protein fused to GFP), Q86VP1. The assay can be described thus: affinity purification with mass spectrometry. The note with it: remark: other sources report otherwise.
The target in assay [2] is GFP-T6BP (TAX1BP1 / TRAF6-Binding Protein fused to GFP) (UniProt Q86VP1). The assay can be described thus: affinity purification with mass spectrometry.

Amino acid sequences for entries named in this document (tags omitted).
UniProt Q86VP1: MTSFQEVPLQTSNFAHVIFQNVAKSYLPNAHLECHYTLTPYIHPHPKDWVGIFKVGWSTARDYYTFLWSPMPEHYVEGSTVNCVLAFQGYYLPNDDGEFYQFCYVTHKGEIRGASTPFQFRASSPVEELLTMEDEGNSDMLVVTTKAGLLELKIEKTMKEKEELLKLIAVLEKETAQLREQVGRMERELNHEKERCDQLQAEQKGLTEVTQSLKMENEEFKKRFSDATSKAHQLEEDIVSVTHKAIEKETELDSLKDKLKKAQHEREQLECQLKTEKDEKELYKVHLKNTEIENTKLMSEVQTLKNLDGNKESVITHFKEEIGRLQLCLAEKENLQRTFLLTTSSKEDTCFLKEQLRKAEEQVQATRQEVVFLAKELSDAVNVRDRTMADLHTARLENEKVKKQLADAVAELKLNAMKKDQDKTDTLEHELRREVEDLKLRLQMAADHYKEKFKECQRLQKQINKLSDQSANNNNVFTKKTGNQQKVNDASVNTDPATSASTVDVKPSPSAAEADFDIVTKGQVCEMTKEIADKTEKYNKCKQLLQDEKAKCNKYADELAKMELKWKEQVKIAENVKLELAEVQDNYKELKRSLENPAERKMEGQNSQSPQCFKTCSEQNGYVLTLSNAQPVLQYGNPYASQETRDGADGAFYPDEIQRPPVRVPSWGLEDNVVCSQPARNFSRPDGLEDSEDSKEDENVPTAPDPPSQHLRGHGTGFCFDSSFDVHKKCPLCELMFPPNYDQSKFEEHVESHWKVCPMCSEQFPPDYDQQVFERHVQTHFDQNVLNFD

These are yes or no findings as the source states them, for the method shown. In cells and extracts the contact can be indirect. A yes stands for co-enrichment or nearness to the bait. Other partners may have been found. For some assays here: A no says only that the protein was not detected with the bait.

B1: Myosin-VI, Q9UM54 1-1294 (protein)
chain: MEDGKPVWAPHPTDGFQMGNIVDIGPDSLTIEPLNQKGKTFLALINQVFPAEEDSKKDVEDNCSLMYLNEATLLHNIKVRYSKDRIYTYVANILIAVNPYFDIPKIYSSEAIKSYQGKSLGTRPPHVFAIADKAFRDMKVLKMSQSIIVSGESGAGKTENTKFVLRYLTESYGTGQDIDDRIVEANPLLEAFGNAKTVRNNNSSRFGKFVEIHFNEKSSVVGGFVSHYLLEKSRICVQGKEERNYHIFYRLCAGASEDIREKLHLSSPDNFRYLNRGCTRYFANKETDKQILQNRKSPEYLKAGSMKDPLLDDHGDFIRMCTAMKKIGLDDEEKLDLFRVVAGVLHLGNIDFEEAGSTSGGCNLKNKSAQSLEYCAELLGLDQDDLRVSLTTRVMLTTAGGTKGTVIKVPLKVEQANNARDALAKTVYSHLFDHVVNRVNQCFPFETSSYFIGVLDIAGFEYFEHNSFEQFCINYCNEKLQQFFNERILKEEQELYQKEGLGVNEVHYVDNQDCIDLIEAKLVGILDILDEENRLPQPSDQHFTSAVHQKHKDHFRLTIPRKSKLAVHRNIRDDEGFIIRHFAGAVCYETTQFVEKNNDALHMSLESLICESRDKFIRELFESSTNNNKDTKQKAGKLSFISVGNKFKTQLNLLLDKLRSTGASFIRCIKPNLKMTSHHFEGAQILSQLQCSGMVSVLDLMQGGYPSRASFHELYNMYKKYMPDKLARLDPRLFCKALFKALGLNENDYKFGLTKVFFRPGKFAEFDQIMKSDPDHLAELVKRVNHWLTCSRWKKVQWCSLSVIKLKNKIKYRAEACIKMQKTIRMWLCKRRHKPRIDGLVKVGTLKKRLDKFNEVVSVLKDGKPEMNKQIKNLEISIDTLMAKIKSTMMTQEQIQKEYDALVKSSEELLSALQKKKQQEEEAERLRRIQEEMEKERKRREEDEKRRRKEEEERRMKLEMEAKRKQEEEERKKREDDEKRIQAEVEAQLARQKEEESQQQAVLEQERRDRELALRIAQSEAELISDEAQADLALRRSLDSYPVSKNDGTRPKMTPEQMAKEMSEFLSRGPAVLATKAAAGTKKYDLSKWKYAELRDTINTSCDIELLAACREEFHRRLKVYHAWKSKNKKRNTETEQRAPKSVTDYDFAPFLNNSPQQNPAAQIPARQREIEMNRQQRFFRIPFIRPADQYKDPQSKKKGWWYAHFDGPWIARQMELHPDKPPILLVAGKDDMEMCELNLEETGLTRKRGAEILPRQFEEIWERCGGIQYLQNAIESRQARPTYATAMLQSLLK
On to B1, for which, in assay [1], the binding result is “no binding”.

B2: DUB UPS15 (protein, UniProt Q9Y4E8 1-981)
chain: MAEGGAADLDTQRSDIATLLKTSLRKGDTWYLVDSRWFKQWKKYVGFDSWDKYQMGDQNVYPGPIDNSGLLKDGDAQSLKEHLIDELDYILLPTEGWNKLVSWYTLMEGQEPIARKVVEQGMFVKHCKVEVYLTELKLCENGNMNNVVTRRFSKADTIDTIEKEIRKIFSIPDEKETRLWNKYMSNTFEPLNKPDSTIQDAGLYQGQVLVIEQKNEDGTWPRGPSTPKSPGASNFSTLPKISPSSLSNNYNNMNNRNVKNSNYCLPSYTAYKNYDYSEPGRNNEQPGLCGLSNLGNTCFMNSAIQCLSNTPPLTEYFLNDKYQEELNFDNPLGMRGEIAKSYAELIKQMWSGKFSYVTPRAFKTQVGRFAPQFSGYQQQDCQELLAFLLDGLHEDLNRIRKKPYIQLKDADGRPDKVVAEEAWENHLKRNDSIIVDIFHGLFKSTLVCPECAKISVTFDPFCYLTLPLPMKKERTLEVYLVRMDPLTKPMQYKVVVPKIGNILDLCTALSALSGIPADKMIVTDIYNHRFHRIFAMDENLSSIMERDDIYVFEININRTEDTEHVIIPVCLREKFRHSSYTHHTGSSLFGQPFLMAVPRNNTEDKLYNLLLLRMCRYVKISTETEETEGSLHCCKDQNINGNGPNGIHEEGSPSEMETDEPDDESSQDQELPSENENSQSEDSVGGDNDSENGLCTEDTCKGQLTGHKKRLFTFQFNNLGNTDINYIKDDTRHIRFDDRQLRLDERSFLALDWDPDLKKRYFDENAAEDFEKHESVEYKPPKKPFVKLKDCIELFTTKEKLGAEDPWYCPNCKEHQQATKKLDLWSLPPVLVVHLKRFSYSRYMRDKLDTLVDFPINDLDMSEFLINPNAGPCRYNLIAVSNHYGGMGGGHYTAFAKNKDDGKWYYFDDSSVSTASEDQIVSKAAYVLFYQRQDTFSGTGFFPLDRETKGASAATGIPLESDEDSNDNDNDIENENCMHTN
With B2, in assay [2], the binding entry is “binds”.
